Laboratory results published in paper doi:10.1101/358176.
No constants are given. Whether binding was seen depends on the method and setting. Binding seen in cells or lysates may run through a third protein. These calls come from enrichment with a bait or labelling near it, and not all partners need be listed.

Biological target: GFP-tagged gp83 of Kallithea virus (Kallithea virus)
Assay: affinity purification with mass spectrometry

Binder | binding
Mlf (protein, UniProt Q9NKV0 1-376) MSLFGALMGDFDDDLGLMNNHMNHTMNAMNMQMRSMNRLMNSFMPDPFMQVSPFDQGFQQNALMERPQMPAMPAMGLFGMPMMPNFNRLLNADIGGNSGASFCQSTVMTMSSGPDGRPQIYQASTSTKTGPGGVRETRRTVQDSRTGVKKMAIGHHIGERAHIIEKEQDMRSGQLEERQEFINLEEGEAEQFDREFTSRASRGAVQSRHHAGGMQAIMPARPAAHTSTLTIEPVEDDDDDDDDCVIQEQQPVRSSAGRHYSSAPTAPQNSGNIATAAAPTPTSSPTTYDTSNGNNNNYVSSRRSYLRNGHGHSLATPRRPLRTPPSSPLATVSTSPSIHPHPYAANPRRQQRAVKHFHTEDEAASSYKAVKRGKKK | binds
spz (spatzle), extracellular Toll ligand (ligand, UniProt P48607 26-326) KEYERIIKELFTITNDEGVVLFNTSADSAPFMPIPTQHDDPTQKQKQNQNQSPIPETNRHYHQYHSLIQPDQYFKVQRSPNGKLNLVFNDTFVSLQRTDTEVQSEQPIPPRHPSDTFVFPDSPIAKYRPPQSPARPLRNDTKEHNPCAKDESQHLRNFCTNVDDYPDLSGLTHKLKNNFAKFFSNDLQPTDVSSRVGGSDERFLCRSIRKLVYPKKGLRADDTWQLIVNNDEYKQAIQIEECEGADQPCDFAANFPQSYNPICKQHYTQQTLASIKSDGELDVVQNSFKIPSCCKCALKTG | binds
